Drawing on PubChem BioAssay AID662 (National Center for Advancing Translational Sciences (NCATS), 2007), this text covers AC50 for 64 compounds.

Structures are written as SMILES. The list shows a part of the results. The main result of the screen is listed elsewhere. These columns were measured beside it and carry no call. Compounds called inactive in the main read-out are mostly missing here. The note in brackets gives the kind of curve behind each potency; many fits are weak.

The assay in a line: Cell signaling CRE-BLA (Fsk stim). The following applies: CHO CRE-bla reporter (cAMP response element driving beta-lactamase), forskolin EC10, beta-lactamase ratio; measured here: 460 nm blue channel. An outline of the steps: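 The 460nm/530nm emission ratio after CCF4 loading defined %Activity, from which AC50 values were obtained. CRE-bla CHO cells received compound dilution series together with an EC10 level of NKH 477 for 3 hours at 37 degrees Celsius.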
`CC12CC(NC(=O)N1c1cccc(C(=O)Nc3ncn[nH]3)c1)c1ccccc1O2` (centres undefined): the AC50 was 7.94 µM [falling, partial curve].
Take `O=C(CN(Cc1ccco1)C(=O)CNS(=O)(=O)c1ccc(Cl)cc1)NC1CCCCC1`: the AC50 is 0.1 µM [falling, full curve].
With `O=C(NCc1ccco1)C1CCCN(S(=O)(=O)c2cccc3nsnc23)C1` (centres undefined) the figure was 31.6 µM [falling, partial curve, poor fit].
With `Clc1ccccc1-c1nnc2sc(-c3ccc4c(c3)OCO4)nn12`, the concentration at half-maximal activity (AC50) is 12.6 µM [rising, partial curve].
Consider `CCc1nc(NCCCn2ccnc2)c2oc3ccccc3c2n1`, for which the AC50 is 10 µM [rising, partial curve].
With `O=C(CSc1nnnn1-c1ccccc1)N1CCc2ccccc2C1` the figure was 7.94 µM [falling, partial curve]; with `COc1cccc(-n2c(Cc3cc(=O)[nH]c(=O)[nH]3)nnc2SCC(=O)N2CCC(C)CC2)c1`, 0.00398 µM [falling, full curve, poor fit]; with `O=C(COC(=O)c1cncc(Br)c1)NCc1ccco1`, 6.31 µM [falling, partial curve].
In the case of `CC(C)C[C@@H](CC(=O)N[C@@H](CCCN)CC(=O)N[C@@H]1CCCC[C@H]1C(=O)N[C@H](CC(=O)N[C@@H](CCC(=O)O)CC(=O)O)Cc1c[nH]c2ccccc12)NC(=O)[C@@H]1CNCC[C@H]1N`, the AC50 is 10 µM [falling, partial curve, poor fit].
With `N#C/C(=C\c1ccc(O)c(O)c1)C(=O)NCCCCc1ccccc1` the figure was 25.1 µM [falling, partial curve, poor fit]; with `COc1ccc2c(c1)c(=O)oc1cc(OCC(=O)N3CCCC(C)C3)ccc12` (centres undefined), 2.51 µM [rising, partial curve].
With `O=C(CN1C(=O)C2(OCCO2)c2ccccc21)c1ccc(Br)cc1` the figure was 0.316 µM [rising, single point]; with `CCCCn1nc(C(=O)NC2=NCCS2)c2ccccc2c1=O`, 12.6 µM [rising, single point].
The same measure for `Cc1nnc(SCCn2c(N3CCN(c4ccccc4)CC3)nc3c2c(=O)n(C)c(=O)n3C)s1`: 20 µM [falling, single point]; for `Cc1ccc2[nH]c(=O)c3cc(C(=O)N4CCN(C(=O)c5ccco5)CC4)sc3c2c1`: 10 µM [rising, partial curve]; for `CCOc1cc(/C=C(/C#N)c2ccc(F)cc2)ccc1OCc1ccc(C(=O)O)o1`: 10 µM [falling, single point].
On to `CCOc1ccccc1CN(Cc1ccco1)S(=O)(=O)c1ccc(-n2cnnn2)c(OC)c1`, for which the AC50 was 25.1 µM [falling, single point].
The same measure for `COCCn1c(=O)cnc2cnc(Nc3cccc(OC)c3)nc21`: 3.16 µM [falling, partial curve]; for `Cc1ccc(-n2c(C)cc(C(=O)OCC(=O)N(CC(C)C)C3CCS(=O)(=O)C3)c2C)cc1` (centres undefined): 25.1 µM [rising, single point]; for `Cc1ccc(CC(=O)Nc2cccc(C)n2)cc1`: 25.1 µM [falling, single point].
`COCCn1c(=O)c(-c2cccs2)nc2cnc(N(C)C)nc21`: the AC50 was 5.01 µM [rising, partial curve].
Regarding `CCN(c1ccccc1)S(=O)(=O)c1ccc2[nH]cc(C(=O)NCCOC)c(=O)c2c1`, the AC50 is 3.16 µM [falling, full curve].
Take `COc1ccc(C(=O)COC(=O)CSCc2c(C)noc2C)cc1OC`: the AC50 is 10 µM [rising, partial curve].
Consider `Cc1ccc(O)c(-c2cc3ccccc3[nH]2)c1`, for which the AC50 was 0.316 µM [rising, partial curve].
The same measure for `COc1ccc(-c2nnc(NC(=O)c3ccc(S(=O)(=O)N4CCCc5ccccc54)cc3)o2)cc1`: 10 µM [falling, single point]; for `CCc1nnc(NC(=O)CSc2nc3cccnc3n2C2CCCCC2)s1`: 12.6 µM [rising, single point].
The same measure for `Cc1cc(C)n(-c2nc(NCC3CCCO3)c3c4c(sc3n2)COC(C)(C)C4)n1` (centres undefined): 3.98 µM [rising, full curve]; for `COC(=O)c1ccc(NC(=O)CN2C(=O)CCC2=O)cc1`: 3.98 µM [falling, single point].
On to `CCNc1ncc2nc(-c3ccc(F)cc3)c(=O)n(-c3ccccc3)c2n1`, for which the AC50 is 3.16 µM [rising, partial curve].
With `Cc1ccc2[nH]c(=O)c(CN(CCCN3CCOCC3)C(=O)Nc3cccc(Cl)c3)cc2c1`, the AC50 is 12.6 µM [rising, partial curve].
With `CC(=O)Nc1cc(C(=O)N2CCCC2)ccc1S(=O)(=O)c1ccc(C)cc1`, the AC50 is 0.00398 µM [falling, full curve, poor fit].
With `CCOC(=O)c1c(NC(=O)C2CCN(S(=O)(=O)c3cccs3)CC2)sc(C)c1C` the figure was 1 µM [rising, full curve, poor fit].
On to `Nc1ncn(C(=O)c2ccco2)n1`, for which the concentration at half-maximal activity (AC50) is 1.58 µM [falling, full curve].
Regarding `Cc1cc(C)c(NC(=O)Cn2c(=O)n(Cc3ccco3)c(=O)c3ccccc32)c(C)c1`, the concentration at half-maximal activity (AC50) is 0.158 µM [falling, full curve, poor fit].
As for `CCN(CC)S(=O)(=O)c1ccc2c(c1)c(=O)c(C(=O)NCCN(C)CCc1ccccc1)cn2C`, the AC50 was 12.6 µM [rising, partial curve].
As for `Cc1nc2cc(C(=O)OCC(=O)N(CC(C)C)C3CCS(=O)(=O)C3)ccc2n1-c1ccccc1` (centres undefined), the AC50 was 10 µM [rising, partial curve].
The same measure for `COc1cccc(Nc2ncc3ncc(=O)n(CCC#N)c3n2)c1`: 12.6 µM [rising, single point]; for `CCOc1cccc(/C(O)=C2/C(=O)C(=O)N(Cc3ccco3)C2c2ccncc2)c1` (centres undefined): 0.0251 µM [falling, full curve, poor fit]; for `CCOC(=O)C1=C(C)Nc2nc(C)nn2C1c1ccc(OC)c(OC)c1` (centres undefined): 10 µM [rising, partial curve].
The same measure for `Cc1ccccc1-c1ccc2ncnc(N(C)C)c2c1`: 25.1 µM [rising, single point].
With `Cc1cc(C)n(-c2nnc3n2N=C(c2ccccc2)CS3)n1` the figure was 3.16 µM [rising, single point]; with `COc1ccc(NC(=O)CCc2nc(-c3ccc(C)cc3)no2)c(OC)c1`, 2 µM [falling, full curve, poor fit].
For the compound `CC1=CC(C)(C)N2C(=O)C3(C(C#N)=C(N)Oc4cc(O)ccc43)c3cccc1c32` (centres undefined), the half-maximal activity concentration (AC50) is 2 µM [rising, full curve].
The same measure for `Cc1noc(NS(=O)(=O)c2cccc3c(N(C)C)cccc23)c1C`: 0.000794 µM [falling, full curve, poor fit].
The same measure for `Cc1cc(C(=O)OCC(=O)c2c(N)n(C)c(=O)n(C)c2=O)c(C)n1-c1ccccc1`: 10 µM [rising, single point]; for `Cc1ccc(NC(=O)C2CCCN(S(=O)(=O)c3cccs3)C2)cc1` (centres undefined): 0.1 µM [falling, single point].
Regarding `CCC(c1nnnn1Cc1ccco1)N(CCN1CCOCC1)Cc1cc2cc(C)ccc2[nH]c1=O` (centres undefined), the AC50 was 25.1 µM [falling, single point].
The same measure for `CCN1CCN(c2oc(COc3ccc(-c4ccccc4)cc3)nc2C#N)CC1`: 20 µM [rising, single point]; for `Cn1c(=O)c2c(nc(NCCc3ccccc3)n2Cc2ccc(F)cc2)n(C)c1=O`: 5.01 µM [rising, partial curve]; for `COCCOC(=O)c1c(C)oc2ccc(NS(=O)(=O)c3ccc(F)cc3)cc12`: 10 µM [rising, partial curve].
On to `Cc1c(NC(=O)c2c(F)cccc2F)c(=O)n(-c2ccccc2)n1C`, for which the AC50 is 0.0794 µM [falling, full curve].
On to `CCOC(=O)C1=C(C)NC(SCC(=O)O)=NC1c1ccccc1` (centres undefined), for which the AC50 is 12.6 µM [rising, single point].
The same measure for `CCCc1cc(=O)[nH]c(SCCOc2ccc(Cl)cc2)n1`: 25.1 µM [rising, single point]; for `Cc1cc2nc(-c3ccc(NC(=O)c4cccnc4)cc3)oc2cc1C`: 0.126 µM [falling, single point]; for `COC(=O)C1=C(N)Oc2cc(C)n(CC3CCCO3)c(=O)c2C1c1ccccc1` (centres undefined): 3.98 µM [falling, partial curve].
With `N#Cc1ccccc1Cn1c(=O)n(Cc2ccc(C(=O)NCc3ccco3)cc2)c(=O)c2ccccc21` the figure was 12.6 µM [rising, single point]; with `CCOC(=O)c1cc2sccc2n1CC(=O)c1ccc2c(c1)OCCO2`, 10 µM [falling, partial curve]; with `COc1ccc(-n2c(Cc3cccn3C)nnc2SCC(=O)Nc2cc(C)cc(C)c2)cc1`, 15.8 µM [falling, single point].
The same measure for `COc1ccc(C2CC(=O)C3=C(C2)Nc2ncnn2C3c2ccccc2C)c(OC)c1` (centres undefined): 10 µM [rising, single point].
`Cc1noc(C)c1-c1ccc2ncnc(NCc3cccs3)c2c1`: the AC50 was 2.51 µM [rising, full curve].
In the case of `COc1cc(C#N)ccc1OCC(=O)c1ccc2c(c1)OCCO2`, the AC50 is 0.631 µM [falling, partial curve, poor fit].
The same measure for `CN(C)c1nc(SCC#N)nc(N(C)C)n1`: 12.6 µM [rising, single point]; for `O=C(CSc1ccc2nnc(-c3ccccn3)n2n1)NCC1CCCO1` (centres undefined): 10 µM [rising, single point].
The same measure for `COc1ccc(Cn2c(C3CC3)nc3ccc(NC(=O)c4ccco4)cc3c2=O)cc1`: 12.6 µM [rising, partial curve].

As usually defined, the AC50 is the concentration giving half of the maximal activity seen.
